Assay results reported in patent US20240092836A1.
Results are given in words; binding and its absence hold for the method and conditions named. Some binding calls cover weakened binding; strength is not graded here.

The chains behind the UniProt entries cited, without tags or fusion partners. Where a name states a change or a piece, a line headed by the entry shows the natural chain unless it says otherwise.
UniProt P16410: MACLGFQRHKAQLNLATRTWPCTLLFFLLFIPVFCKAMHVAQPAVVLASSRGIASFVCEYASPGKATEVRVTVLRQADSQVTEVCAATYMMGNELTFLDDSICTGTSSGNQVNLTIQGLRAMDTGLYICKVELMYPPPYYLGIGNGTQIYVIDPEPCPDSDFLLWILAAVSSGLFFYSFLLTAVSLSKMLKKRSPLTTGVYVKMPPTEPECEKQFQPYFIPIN

Target: CTLA-4 expressed on the cell surface of CHO cells (Homo sapiens (Human)) (UniProt P16410)
Experiment: FACS on CHO cells expressing CTLA-4; Geom. Mean against peptide concentration, log(uM)

binding: binds
Binder: CMHPFLPIVSHHFCER [No. #19 synthetic peptide used in FACS]
